# Results are given in words; binding and its absence hold for the method and conditions named. Binding seen in cells or lysates may run through a third protein. Some results given as binding are weak or reduced against the parent protein; the word gives no strength.
# Amino acid sequences for entries named in this document (tags omitted). A change or cut given only in a name is not applied to a line headed by its entry. Residues count along the entry.
# UniProt P06935, residues 1-123: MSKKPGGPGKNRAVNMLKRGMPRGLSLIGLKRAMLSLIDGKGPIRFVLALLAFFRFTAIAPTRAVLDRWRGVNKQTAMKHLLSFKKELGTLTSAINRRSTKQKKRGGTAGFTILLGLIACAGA
# UniProt O35864: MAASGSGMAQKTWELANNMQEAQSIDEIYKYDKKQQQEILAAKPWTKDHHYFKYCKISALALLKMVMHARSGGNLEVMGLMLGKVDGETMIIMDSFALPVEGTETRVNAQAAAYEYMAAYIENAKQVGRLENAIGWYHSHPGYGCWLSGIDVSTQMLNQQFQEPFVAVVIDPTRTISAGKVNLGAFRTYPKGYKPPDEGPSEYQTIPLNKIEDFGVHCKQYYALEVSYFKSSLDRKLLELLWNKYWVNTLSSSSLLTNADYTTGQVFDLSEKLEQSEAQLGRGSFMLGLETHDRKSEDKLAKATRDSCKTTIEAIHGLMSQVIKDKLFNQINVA
# Key:
# [1] = molecular target: HA-tagged WNV-Cp (pcDNA3-HA/WNV-Cp) (West Nile virus) (UniProt P06935); test: co-immunoprecipitation from cotransfected 293T cells (legend of FIG. 7)
# [2] = molecular target: HA-tagged WNV-Cp (pcDNA3-HA/WNV-Cp) (West Nile virus) (UniProt P06935); test: co-immunoprecipitation from cotransfected 293T cells: IP with anti-HA, blot with anti-Flag
substance,measurement,setting,value
Flag-tagged Jab1 (pCMV Tag2B-Jab1) (from UniProt O35864 1-334),binding,[1],binds
same,binding,[2],binds

# — patent US20080095742A1
